# Laboratory results reported in patent US6897054.
# Amino acid sequences for entries named in this document (tags omitted).
# UniProt O00311: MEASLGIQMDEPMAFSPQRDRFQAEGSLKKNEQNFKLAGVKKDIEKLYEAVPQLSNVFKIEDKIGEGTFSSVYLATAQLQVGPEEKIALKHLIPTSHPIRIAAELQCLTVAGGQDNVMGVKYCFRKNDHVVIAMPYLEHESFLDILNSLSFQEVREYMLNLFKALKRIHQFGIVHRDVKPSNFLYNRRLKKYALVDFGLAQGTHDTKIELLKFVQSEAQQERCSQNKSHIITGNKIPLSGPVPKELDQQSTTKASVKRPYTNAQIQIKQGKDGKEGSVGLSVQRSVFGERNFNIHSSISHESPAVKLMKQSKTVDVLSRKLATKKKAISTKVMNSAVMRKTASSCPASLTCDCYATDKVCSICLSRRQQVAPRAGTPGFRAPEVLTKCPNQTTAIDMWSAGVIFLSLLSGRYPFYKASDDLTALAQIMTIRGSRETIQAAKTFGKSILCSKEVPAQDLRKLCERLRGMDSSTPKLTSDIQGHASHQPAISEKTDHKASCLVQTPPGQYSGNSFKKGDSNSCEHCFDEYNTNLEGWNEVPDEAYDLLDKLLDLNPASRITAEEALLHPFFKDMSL
# Results are given in words; binding and its absence hold for the method and conditions named. In cells and extracts the contact can be indirect. Some binding calls cover weakened binding; strength is not graded here.
# Assays:
# [1] = biological target: huCdc7 (human) (UniProt O00311); test: co-immunoprecipitation of intrinsic proteins from CEM cell extracts with anti-H37Cpep, huCdc7 immunoblot
# [2] = biological target: huCdc7 (human) (UniProt O00311); test: co-immunoprecipitation of intrinsic proteins from CEM and HeLa cells
# [3] = biological target: huCdc7 (human) (UniProt O00311); test: co-immunoprecipitation from co-transfected COS7 cells
binding [1],binding [2],binding [3],Binder
binds,binds,,human H37 protein (protein) MNSGAMRIHSKGHFQGGIQVKNEKNRPSLKSLKTDNRPEKSKCKPLWGKVFYLDLPSVTISEKLQKDIKDLGGRVEEFLSKDISYLISNKKEAKFAQTLGRISPVPSPESAYTAETTSPHPSHDGSSFKSPDTVCLSRGKLLVEKAIKDHDFIPSNSILSNALSWGVKILHIDDIRYYIEQKKKELYLLKKSSTSVRDGGKRVGSGAQKTRTGRLKKPFVKVEDMSQLYRPFYLQLTNMPFINYSIQKPCSPFDVDKPSSMQKQTQVKLRIQTDGDKYGGTSIQLQLKEKKKKGYCECCLQKYEDLETHLLSEQHRNFAQSNQYQVVDDIVSKLVFDFVEYEKDTPKKKRIKYSVGSLSPVSASVLKKTEQKEKVELQHISQKDCQEDDTTVKEQNFLYKETQETEKKLLFISEPIPHPSNELRGLNEKMSNKCSMLSTAEDDIRQNFTQLPLHKNKQECILDISEHTLSENDLEELRVDHYKCNIQASVHVSDFSTDNSGSQPKQKSDTVLFPAKDLKEKDLHSIFTHDSGLITINSSQEHLTVQAKAPFHTPPEEPNECDFKNMDSLPSGKIHRKVKIILGRNRKENLEPNAEFDKRTEFITQEENRICSSPVQSLLDLFQTSEEKSEFLGFTSYTEKSGICNVLDIWEEENSDNLLTAFFSSPSTSTFTGF
,,binds,H37 deletion derivative deltaB expressed in COS7 cells (protein) MNSGAMRIHSKGHFQGGIQVKNEKNRPSLKSLKTDNRPEKSKCKPLWGKVFYLDLPSVTISEKLQKDIKDLGGRVEEFLSKDISYLISNKKEAKFAQTLGRISPVPSPESAYTAETTSPHPSHDGSSFKSPDTVCLSRGKLLVEKAIKDHDFIPSNSILSNALSWGVKILHIDDIRYYIEQKKKELYLLKKSSTSVRDGGKRVGSGAQKTRTGRLKKPFVKVEDMSQLYRPFYLQLTNMPFINYSIQKPCSPFDVDKPSSMQKQTQVKLRIQTDGDKYGGTSIQLQLKEKKKKGYCECCLQKYED
,,binds,H37 deletion derivative deltaN2 expressed in COS7 cells (protein) DKPSSMQKQTQVKLRIQTDGDKYGGTSIQLQLKEKKKKGYCECCLQKYEDLETHLLSEQHRNFAQSNQYQVVDDIVSKLVFDFVEYEKDTPKKKRIKYSVGSLSPVSASVLKKTEQKEKVELQHISQKDCQEDDTTVKEQNFLYKETQETEKKLLFISEPIPHPSNELRGLNEKMSNKCSMLSTAEDDIRQNFTQLPLHKNKQECILDISEHTLSENDLEELRVDHYKCNIQASVHVSDFSTDNSGSQPKQKSDTVLFPAKDLKEKDLHSIFTHDSGLITINSSQEHLTVQAKAPFHTPPEEPNECDFKNMDSLPSGKIHRKVKIILGRNRKENLEPNAEFDKRTEFITQEENRICSSPVQSLLDLFQTSEEKSEFLGFTSYTEKSGICNVLDIWEEENSDNLLTAFFSSPSTSTFTGF
